Patent US10729706B2, “Psilocybin and/or psilocin in combination with cannabinoids and/or terpenes” (Procare Beheer B.V., priority 2017, dated 2020)
At least one compound was matched to its structure with a doubt left.

Key:
[1] = tested on: subjects with Alzheimer's disease; assay: 48-day daily oral treatment, subjects diagnosed with Alzheimer's disease; format: in vivo; conditions: 10 subjects with Alzheimer's disease, 48-day treatment, 30 mg of each active
Description: (§1) In a 48-day treatment, 50 subjects suffering from diverse medical conditions receive a daily oral dose with either • pure psilocybin (30 mg); • pure cannabidiol (30 mg); or • combined treatment of pure psilocybin (30 mg)+pure cannabidiol (30 mg).

subjects with Dementia = assay: 48-day daily oral treatment, subjects diagnosed with dementia; format: in vivo; conditions: 10 subjects with dementia, 48-day treatment, 30 mg of each active
Description: as §1

[2] = tested on: subjects with Parkinson's disease; assay: 48-day daily oral treatment, subjects diagnosed with Parkinson's disease; format: in vivo; conditions: 4 subjects with Parkinson's disease, 48-day treatment, 30 mg of each active
Description: as §1

[3] = tested on: individuals under the influence of psilocybin; conditions: typical duration after ingestion; cited from earlier work
[4] = tested on: subjects with Huntington's disease; assay: 48-day daily oral treatment, subject diagnosed with Huntington's disease; format: in vivo; conditions: 1 subject with Huntington's disease, 48-day treatment, 30 mg of each active
Description: as §1

Compound: CN(C)CCc1c[nH]c2cccc(OP(=O)(O)O)c12 [psilocybin, [3-(2-dimethylaminoethyl)-1H-indol-4-yl] dihydrogen phosphate]
- progression of disease symptoms during treatment [1]: normal progression
- progression of disease symptoms during treatment (subjects with Dementia): normal progression
- progression of movement disorders during treatment [2]: normal progression
- duration of mind-altering effects [3]: two to six
- progression of movement, cognitive, and psychiatric disorders during treatment [4]: normal progression
